Measurements: PubChem BioAssay AID588590 (National Center for Advancing Translational Sciences (NCATS), 2011)
Screen size: about 390,000 compounds; about 4,000 (1%) were called active. The shares of active, inactive and inconclusive entries below differ from those in the screen. Calls follow the shape of the dose curve; as a rule, active = well fitted inhibition curve with a large enough effect; inconclusive = small, poorly fitted or top-dose-only effect, or another doubt; inactive = no such curve, though single readings can be large or run the other way. A potency beside an inconclusive call is a rough fit, not a confirmed value.

Amino acid sequences for entries named in this document (tags omitted). A change or cut given only in a name is not applied to a line headed by its entry.
UniProt Q9UNA4: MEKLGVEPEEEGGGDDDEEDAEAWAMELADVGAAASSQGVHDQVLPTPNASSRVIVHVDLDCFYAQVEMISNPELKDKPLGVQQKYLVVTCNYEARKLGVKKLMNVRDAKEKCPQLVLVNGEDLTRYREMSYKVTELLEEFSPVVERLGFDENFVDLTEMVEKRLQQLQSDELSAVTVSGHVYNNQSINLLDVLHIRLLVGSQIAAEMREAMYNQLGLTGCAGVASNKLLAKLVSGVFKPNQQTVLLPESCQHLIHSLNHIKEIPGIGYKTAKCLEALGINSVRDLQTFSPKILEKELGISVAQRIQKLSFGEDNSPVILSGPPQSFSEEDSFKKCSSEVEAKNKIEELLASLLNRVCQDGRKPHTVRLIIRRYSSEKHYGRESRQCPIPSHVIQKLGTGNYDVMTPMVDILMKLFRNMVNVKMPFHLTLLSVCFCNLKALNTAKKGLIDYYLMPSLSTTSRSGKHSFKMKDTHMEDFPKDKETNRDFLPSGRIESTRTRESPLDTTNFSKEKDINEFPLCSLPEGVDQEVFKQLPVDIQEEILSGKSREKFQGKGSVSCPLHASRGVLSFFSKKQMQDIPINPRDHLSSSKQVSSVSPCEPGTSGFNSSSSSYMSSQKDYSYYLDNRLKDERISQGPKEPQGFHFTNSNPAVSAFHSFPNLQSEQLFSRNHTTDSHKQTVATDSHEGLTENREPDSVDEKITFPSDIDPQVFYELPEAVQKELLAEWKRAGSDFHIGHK

Each compound was assayed against DNA polymerase iota (Homo sapiens) (UniProt Q9UNA4) (assay: qHTS for Inhibitors of Polymerase Iota). Details: Pol iota fluorescent replication assay, 10 min; series mostly up to 115 µM; activity, negative = inhibition: at the top concentration.
Summary of the method: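 Pol iota at 10 nM preincubated 15 min with compounds at room temperature; reaction started with fluorescent substrate, 50 nM final. Fluorescence read kinetically at 0 and 10 min; buffer-only wells as negative control.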
Potency is read from the fitted curve at half-maximal effect.

Row | SMILES | activity, negative = inhibition | Potency
1 | CCOC(=O)Cc1c(C)nc2c(-c3ccc(Cl)cc3)c[nH]n2c1=O | inactive: 19.8% | 
2 | COC(=O)c1cc2c(-c3ccccc3)cc3ccccn3c-2c1C(=O)OC |  | inconclusive: 35.5 µM [inhibitor, partial curve, poor fit]
3 | COC(=O)CSc1nnc(-c2ccoc2C)n1-c1ccc(C)cc1 |  | inconclusive: 39.8 µM [inhibitor, single point]
4 | COc1ccc(Oc2ccc(N/C=C/C(=O)C(C)(C)C)cc2)cc1 |  | inconclusive: 70.8 µM [inhibitor, partial curve]
5 | CC1=NN(Cc2ccccc2)C(=O)C1C(c1ccccc1)C(C#N)C#N (stereo not drawn) |  | inconclusive: 39.8 µM [inhibitor, single point]
6 | COc1cc2nc(C#N)nc(N)c2cc1OC |  | inconclusive: 89.1 µM [inhibitor, single point]
7 | O=C(/C=C/c1ccccc1)Nc1ncn[nH]1 |  | inconclusive: 28.2 µM [inhibitor, partial curve, poor fit]
8 | CCOC(=O)CSc1nnc(NC(=O)CCc2ccccc2)s1 |  | inconclusive: 100 µM [inhibitor, single point]
9 | CC1=NN(c2ccccc2)C(=O)C1C=Nc1ccc(N(C)C)cc1 (stereo not drawn) |  | inconclusive: 28.2 µM [inhibitor, partial curve]
10 | COc1ccc(/C=C/C(=O)O)cc1S(=O)(=O)N1CCc2ccccc21 |  | inconclusive: 28.2 µM [inhibitor, partial curve, poor fit]
11 | CC1=NNC(=O)C1CC(=O)N/N=C/c1sccc1C (stereo not drawn) |  | inconclusive: 89.1 µM [inhibitor, partial curve, poor fit]
12 | O=C(CCC1CCCC1)NNC(=O)c1cc2ccccc2cc1O |  | inconclusive: 28.2 µM [inhibitor, single point]
13 | Fc1cc(F)cc(-c2c(-c3ccccc3)ncc3ccc(F)cc23)c1 |  | inconclusive: 14.1 µM [inhibitor, partial curve, poor fit]
14 | O=c1oc(-c2ccc(O)c(O)c2)cc2cccc(O)c12 |  | inconclusive: 70.8 µM [inhibitor, single point]
15 | CCOC(=O)C1=C(CSc2nc3c(cc2C#N)CN(C)CC3)OC(N)=C(C#N)C1c1ccccc1 (stereo not drawn) |  | inconclusive: 11.2 µM [inhibitor, full curve, poor fit]
16 | CC(C)NC(=O)CCSc1nc(-c2ccc3c(c2)OCO3)cc(C(F)(F)F)n1 |  | inconclusive: 79.4 µM [inhibitor, single point]
17 | CCCOc1ccc(C(=O)CCNC(Cc2c[nH]c3ccccc23)C(=O)O)cc1 (stereo not drawn) |  | inconclusive: 39.8 µM [inhibitor, partial curve, poor fit]
18 | COCCN1C(=O)C(=O)/C(=C(/O)c2ccc(C)cc2)C1c1ccccn1 (stereo not drawn) |  | inconclusive: 50.1 µM [inhibitor, full curve, poor fit]
19 | COc1cccc(/C=C2/NC(=O)NC2=O)c1OCC(=O)Nc1ccccc1 | inactive: 15% | 
20 | COc1cccc(/C=N\NC(=O)C2=NNC(=O)C2C)c1O (stereo not drawn) |  | inconclusive: 89.1 µM [inhibitor, single point]
21 | Cc1sc(-n2c(C)cc(C=O)c2C)c(C(=O)O)c1C |  | active: 35.5 µM

Row | SMILES | activity, negative = inhibition | Potency
22 | O=C(O)/C(=C/c1ccc(Cl)c([N+](=O)[O-])c1)c1ccc(S(=O)(=O)N2CCCCC2)s1 |  | inconclusive: 14.1 µM [inhibitor, full curve, poor fit]
23 | O=C1c2cccc3c([N+](=O)[O-])ccc(c23)C(=O)N1Cc1cccnc1 |  | inconclusive: 15.8 µM [inhibitor, full curve, poor fit]
24 | COc1cc(OC)c(Nc2nc3ccc(C)cc3n3nnnc23)cc1Cl | inactive: 28.9% | 
25 | COc1cc(/C=N/NC(=O)c2ccccc2O)ccc1OC(=O)CC1SC(=O)NC1=O (stereo not drawn) |  | inconclusive: 22.4 µM [inhibitor, partial curve, poor fit]
26 | COc1ccc(C(=O)Nc2ccccc2C(=O)OCc2cc(=O)n3c4c(sc3n2)CCCC4)cc1 | inactive: 11.3% | 
27 | O=C(c1ccc(C(=O)N2CCCc3ccccc32)nc1)N1CCCc2ccccc21 |  | inconclusive: 100 µM [inhibitor, single point]
28 | Cc1nc2c(c(C)c1CCC(=O)Nc1cccc(C(F)(F)F)c1)c(=O)n(C)c(=O)n2C | inactive: 10.7% | 
29 | c1ccc(Cc2nnc(Sc3ccccc3)c3ccccc23)cc1 |  | inconclusive: 56.2 µM [inhibitor, partial curve]
30 | COCCNC(=O)Cn1cc(S(=O)(=O)Cc2ccccc2Cl)c2ccccc21 | inactive: 14.1% | 
31 | CC1=C(C(=O)Nc2ccccc2C)C(c2cccnc2)n2nc(SCc3ccccc3)nc2N1 (stereo not drawn) |  | inconclusive: 79.4 µM [inhibitor, partial curve]
32 | CCCCOc1ccc(N2C(=O)CC(N(O)c3ccccc3)C2=O)cc1 (stereo not drawn) |  | inconclusive: 35.5 µM [inhibitor, partial curve, poor fit]
33 | O=C(/C=C/c1ccco1)NC(=S)Nc1ccccc1O |  | inconclusive: 14.1 µM [inhibitor, full curve, poor fit]
34 | S=C(NCc1ccc2[nH]c3c(c2c1)CCCC3)Nc1ccccc1 | inactive: 13.3% | 
35 | Cc1cccc(-n2c(SCc3cc(=O)n4ccsc4n3)nc3ccccc32)c1 |  | inconclusive: 35.5 µM [inhibitor, partial curve, poor fit]
36 | COc1cc(-c2nc(-c3ccc(NC(=O)c4ccc(Br)o4)cc3)no2)cc(OC)c1OC |  | inconclusive: 20 µM [inhibitor, single point]
37 | Cc1ccc(-c2nnc(Nc3ccc(Br)cc3)c3ccccc23)cc1S(=O)(=O)N1CCOCC1 | inactive: -5.26% | 
38 | O=C(O)C1CC=CCC1C(=O)N1CCc2ccccc21 (stereo not drawn) | inactive: 0.253% | 
39 | O=C1c2cccnc2-c2ncccc21 | inactive: 12.7% | 
40 | Cc1ccc(-c2ccc(C(=O)Nc3cccc(F)c3)o2)c2ccccc12 |  | inconclusive: 17.8 µM [inhibitor, partial curve]
41 | O=C(Cc1cccc2ccccc12)NN1C(=O)CSC1=S |  | inconclusive: 28.2 µM [inhibitor, partial curve, poor fit]
42 | CCOc1ccc(/C=N/NC(=O)c2cc(-c3ccccc3)nc3ccccc23)cc1O |  | inconclusive: 8.91 µM [inhibitor, single point]

For convenience, some entries already given:
Row | SMILES | activity, negative = inhibition | Potency
38 | O=C(O)C1CC=CCC1C(=O)N1CCc2ccccc21 (stereo not drawn) | inactive: 0.253% | 
39 | O=C1c2cccnc2-c2ncccc21 | inactive: 12.7% | 

Later entries:

Row | SMILES | activity, negative = inhibition | Potency
43 | CCCC(c1c(C)n(C)n(-c2ccccc2)c1=O)c1c(C)n(C)n(-c2ccccc2)c1=O |  | inconclusive: 14.1 µM [inhibitor, single point]
44 | Cc1ccc(S(=O)(=O)N2CCN(C(=O)CN3CCc4ccccc4C3)CC2)cc1 |  | inconclusive: 35.5 µM [inhibitor, partial curve, poor fit]
45 | CCOc1ccccc1NC(=O)c1cn(C2CCCC2)c(=O)c2c1c1ccccc1n2C | inactive: 2.27% | 
46 | O=c1cc(CSc2ncn[nH]2)[nH]c2c(Cl)cccc12 |  | inconclusive: 50.1 µM [inhibitor, partial curve, poor fit]
47 | Cc1ccc2nc(S(=O)(=O)O)[nH]c2c1 |  | inconclusive: 15.8 µM [inhibitor, full curve, poor fit]
48 | O=C(Nc1nnc(C23CC4CC(CC(C4)C2)C3)s1)c1ccc(N2C(=O)CCC2=O)cc1 |  | inconclusive: 7.08 µM [inhibitor, partial curve, poor fit]
49 | Nc1nonc1-n1nnc(C(=O)N/N=C/c2cccs2)c1CSc1ccccc1 |  | inconclusive: 100 µM [inhibitor, partial curve, poor fit]
50 | Cc1ccc(-c2[nH]ncc2/C=N/n2c(COc3ccccc3)nc3ccccc3c2=O)cc1 | inactive: 22.6% | 
51 | CCCCCOC(=O)C1[C@H]2C(=O)N(c3ccccc3CC)C[C@]23C=C[C@H]1O3 (stereo partly drawn) |  | inconclusive: 12.6 µM [inhibitor, full curve, poor fit]
52 | CCOC(=O)c1c(NC(=O)c2cc(CC)on2)sc(C)c1C |  | inconclusive: 79.4 µM [inhibitor, single point]
53 | N#Cc1c(SCC(=O)Nc2cccc(F)c2)sc2c(O)cc(=O)[nH]c12 |  | inconclusive: 11.2 µM [inhibitor, partial curve, poor fit]
54 | O=C(O)COc1c(-c2ccco2)oc2ccccc2c1=O |  | inconclusive: 31.6 µM [inhibitor, single point]
55 | CC1=CC=CN2CC(O)CN=C12 (stereo not drawn) |  | inconclusive: 89.1 µM [inhibitor, single point]
56 | N#Cc1c(-c2cccs2)nc(SCC(=O)c2cccs2)[nH]c1=O |  | inconclusive: 20 µM [inhibitor, partial curve, poor fit]
57 | COc1cc(/C=N/NC(=O)c2ccncc2)ccc1OC(C)=O | inactive: -0.0578% | 
58 | O=C(Nc1cc(C(F)(F)F)ccc1Cl)C1CCN(c2nnc(-n3cccc3)s2)CC1 |  | inconclusive: 56.2 µM [inhibitor, partial curve, poor fit]
59 | Cc1cc(O)c(C(C[N+](=O)[O-])c2ccc(Cl)cc2Cl)c(=O)o1 (stereo not drawn) |  | inconclusive: 28.2 µM [inhibitor, partial curve, poor fit]
60 | COc1cc(NC(=O)C(CC(C)C)NS(=O)(=O)c2ccc3c(c2)CCCC(=O)N3)cc(OC)c1 (stereo not drawn) | inactive: 3.69% | 
61 | CC(C)(CO)NS(=O)(=O)c1ccc2c(c1)oc(=O)c1cc(S(=O)(=O)NC(C)(C)CO)ccc12 |  | inconclusive: 79.4 µM [inhibitor, partial curve, poor fit]
62 | CC(NC(=O)c1cccc(S(=O)(=O)N2CCN(Cc3ccccc3)CC2)c1)c1ccccc1Cl (stereo not drawn) |  | inconclusive: 79.4 µM [inhibitor, partial curve, poor fit]
63 | COCc1cc(C)nc(SCc2nc3ccccc3c(=O)[nH]2)c1C#N |  | inconclusive: 44.7 µM [inhibitor, partial curve, poor fit]
